Assay results: publication PMC4771989, “Development of a Rapid Throughput Assay for Identification of hNav1.7 Antagonist Using Unique Efficacious Sodium Channel Agonist, Antillatoxin” (Marine Drugs, 2016)

Protein sequences, listed by entry. Tags and fused reporters are not part of them.
UniProt Q15858, whole entry: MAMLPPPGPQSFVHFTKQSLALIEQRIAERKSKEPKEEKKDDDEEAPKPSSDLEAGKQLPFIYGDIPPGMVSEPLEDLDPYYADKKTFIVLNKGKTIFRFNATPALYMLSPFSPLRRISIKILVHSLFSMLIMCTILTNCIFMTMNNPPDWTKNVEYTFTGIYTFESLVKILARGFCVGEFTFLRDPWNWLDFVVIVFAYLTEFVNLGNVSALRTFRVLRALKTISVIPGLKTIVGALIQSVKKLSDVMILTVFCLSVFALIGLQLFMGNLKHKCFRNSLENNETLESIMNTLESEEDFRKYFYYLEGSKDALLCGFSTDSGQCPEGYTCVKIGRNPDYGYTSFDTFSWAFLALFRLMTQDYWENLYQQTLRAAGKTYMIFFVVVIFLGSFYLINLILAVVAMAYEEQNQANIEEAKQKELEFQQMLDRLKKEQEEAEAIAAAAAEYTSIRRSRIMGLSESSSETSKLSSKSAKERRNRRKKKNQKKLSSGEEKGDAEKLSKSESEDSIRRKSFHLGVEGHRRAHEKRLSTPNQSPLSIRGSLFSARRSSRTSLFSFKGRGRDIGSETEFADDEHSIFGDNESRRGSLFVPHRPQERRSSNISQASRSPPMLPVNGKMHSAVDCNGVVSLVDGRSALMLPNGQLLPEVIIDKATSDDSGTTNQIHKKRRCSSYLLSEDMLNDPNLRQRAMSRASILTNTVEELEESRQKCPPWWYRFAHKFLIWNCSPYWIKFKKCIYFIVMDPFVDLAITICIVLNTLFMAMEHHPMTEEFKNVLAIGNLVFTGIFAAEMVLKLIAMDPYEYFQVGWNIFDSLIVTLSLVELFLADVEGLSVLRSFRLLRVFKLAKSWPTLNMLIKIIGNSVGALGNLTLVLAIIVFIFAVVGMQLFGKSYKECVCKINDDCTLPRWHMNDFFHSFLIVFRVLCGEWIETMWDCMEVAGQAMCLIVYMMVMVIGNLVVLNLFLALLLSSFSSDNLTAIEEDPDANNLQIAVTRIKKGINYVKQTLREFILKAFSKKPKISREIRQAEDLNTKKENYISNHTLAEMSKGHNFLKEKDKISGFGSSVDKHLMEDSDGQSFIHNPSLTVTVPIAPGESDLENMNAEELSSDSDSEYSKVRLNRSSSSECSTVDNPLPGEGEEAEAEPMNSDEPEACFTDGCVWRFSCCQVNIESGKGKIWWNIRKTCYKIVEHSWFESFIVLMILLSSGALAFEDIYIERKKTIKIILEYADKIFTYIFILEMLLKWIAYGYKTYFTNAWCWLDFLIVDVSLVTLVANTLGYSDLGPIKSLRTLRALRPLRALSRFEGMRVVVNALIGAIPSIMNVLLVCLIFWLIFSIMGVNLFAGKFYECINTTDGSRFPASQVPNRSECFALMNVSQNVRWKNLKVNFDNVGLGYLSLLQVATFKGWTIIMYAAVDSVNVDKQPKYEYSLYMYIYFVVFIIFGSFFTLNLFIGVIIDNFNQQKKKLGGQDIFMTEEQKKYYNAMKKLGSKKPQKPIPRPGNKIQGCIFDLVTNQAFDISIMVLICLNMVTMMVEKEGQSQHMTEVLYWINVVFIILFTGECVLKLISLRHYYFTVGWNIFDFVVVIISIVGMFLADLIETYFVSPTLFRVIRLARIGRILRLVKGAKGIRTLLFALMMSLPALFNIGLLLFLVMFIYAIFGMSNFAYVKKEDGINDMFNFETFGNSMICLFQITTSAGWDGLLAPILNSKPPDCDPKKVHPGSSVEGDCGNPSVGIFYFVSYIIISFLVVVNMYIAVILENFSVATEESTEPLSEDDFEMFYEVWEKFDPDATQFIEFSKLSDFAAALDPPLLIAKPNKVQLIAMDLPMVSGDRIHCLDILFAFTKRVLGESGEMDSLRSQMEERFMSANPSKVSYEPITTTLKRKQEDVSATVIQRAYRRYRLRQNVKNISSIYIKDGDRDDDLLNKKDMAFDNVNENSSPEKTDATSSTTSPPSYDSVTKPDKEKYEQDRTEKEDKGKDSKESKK

Target: hNav1.7 (Homo sapiens, UniProt Q15858)
Test: cell-based
Format: cell-based
Procedure: The cells were plated onto poly-D-lysine (10 μg/mL) coated, 96-well, black-walled, clear-bottom plates at an initial density of 20,000 cells/well and cultured for 6 h. […] Cells were then incubated at room temperature for 30 min. The plate was then transferred to a FLIPR®TETRA (Molecular Devices, Sunnyvale, CA, USA) chamber. […] After recording the basal fluorescence for 120 s, 50 μL of sodium channel agonists at different concentrations (prepared in 1× dye at 4× final drug concentrations) or vehicle (0.4% DMSO, 4×) were added to different wells by an automated, programmable pipetting system. The fluorescence was recorded for additional 5–6 min at a sampling rate of 1 s. To examine the VGSC antagonist response on ATX-stimulated membrane depolarization, after recording the basal fluorescence for 120 s, different concentrations of VGSC antagonists were added to corresponding wells and the fluorescence was recorded for additional 5 min followed by an addition of 40 nM (4×, final concentration, 10 nM) ATX. The fluorescence signals were presented as F/F0, where F was defined as the fluorescence at different time points; F0 was the basal fluorescence averaged from initial 5 data points.
Time-response and concentration-response relationships curves were generated using GraphPad Prism 5 software (GraphPad Software, Inc., San Diego, CA, USA). […]

## Nc1nc2ccc(OC(F)(F)F)cc2s1 [Riluzole, riluzole]
  IC50: 3.58 µM
  maximal inhibition of ATX-induced membrane depolarization: nearly complete inhibition
